Experimental data as given in PMC7255037.
These are yes or no findings as the source states them, for the method shown. Binding seen in cells or lysates may run through a third protein. Some entries that bind do so weakly or less than the wild type.

Protein sequences, listed by entry. Tags and fused reporters are not part of them.
UniProt P09874: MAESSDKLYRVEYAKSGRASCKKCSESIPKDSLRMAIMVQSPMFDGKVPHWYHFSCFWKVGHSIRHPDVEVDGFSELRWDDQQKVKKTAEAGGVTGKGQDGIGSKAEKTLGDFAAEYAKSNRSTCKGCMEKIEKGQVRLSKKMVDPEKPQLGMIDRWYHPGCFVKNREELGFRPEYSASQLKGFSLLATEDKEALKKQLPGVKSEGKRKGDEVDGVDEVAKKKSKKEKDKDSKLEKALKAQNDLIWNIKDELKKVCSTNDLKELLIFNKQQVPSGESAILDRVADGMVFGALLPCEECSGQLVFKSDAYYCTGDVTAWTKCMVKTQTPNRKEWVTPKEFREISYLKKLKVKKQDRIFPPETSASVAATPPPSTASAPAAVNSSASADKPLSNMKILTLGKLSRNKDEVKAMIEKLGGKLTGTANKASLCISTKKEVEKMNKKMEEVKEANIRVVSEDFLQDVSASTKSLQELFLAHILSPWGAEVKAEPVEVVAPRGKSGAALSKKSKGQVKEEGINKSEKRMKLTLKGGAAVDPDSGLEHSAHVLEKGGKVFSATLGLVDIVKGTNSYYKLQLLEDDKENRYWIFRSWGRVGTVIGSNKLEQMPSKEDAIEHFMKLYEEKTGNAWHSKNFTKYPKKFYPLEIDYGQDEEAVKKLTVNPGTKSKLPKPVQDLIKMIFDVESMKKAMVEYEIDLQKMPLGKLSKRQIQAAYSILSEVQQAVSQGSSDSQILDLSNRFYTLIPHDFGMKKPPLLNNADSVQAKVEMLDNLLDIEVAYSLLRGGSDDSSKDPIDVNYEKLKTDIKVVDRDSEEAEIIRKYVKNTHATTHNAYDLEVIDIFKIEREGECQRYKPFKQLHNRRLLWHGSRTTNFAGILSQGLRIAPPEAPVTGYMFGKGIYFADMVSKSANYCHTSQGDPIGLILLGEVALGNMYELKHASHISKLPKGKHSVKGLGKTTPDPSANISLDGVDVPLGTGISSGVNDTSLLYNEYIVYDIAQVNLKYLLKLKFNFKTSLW
UniProt P40763: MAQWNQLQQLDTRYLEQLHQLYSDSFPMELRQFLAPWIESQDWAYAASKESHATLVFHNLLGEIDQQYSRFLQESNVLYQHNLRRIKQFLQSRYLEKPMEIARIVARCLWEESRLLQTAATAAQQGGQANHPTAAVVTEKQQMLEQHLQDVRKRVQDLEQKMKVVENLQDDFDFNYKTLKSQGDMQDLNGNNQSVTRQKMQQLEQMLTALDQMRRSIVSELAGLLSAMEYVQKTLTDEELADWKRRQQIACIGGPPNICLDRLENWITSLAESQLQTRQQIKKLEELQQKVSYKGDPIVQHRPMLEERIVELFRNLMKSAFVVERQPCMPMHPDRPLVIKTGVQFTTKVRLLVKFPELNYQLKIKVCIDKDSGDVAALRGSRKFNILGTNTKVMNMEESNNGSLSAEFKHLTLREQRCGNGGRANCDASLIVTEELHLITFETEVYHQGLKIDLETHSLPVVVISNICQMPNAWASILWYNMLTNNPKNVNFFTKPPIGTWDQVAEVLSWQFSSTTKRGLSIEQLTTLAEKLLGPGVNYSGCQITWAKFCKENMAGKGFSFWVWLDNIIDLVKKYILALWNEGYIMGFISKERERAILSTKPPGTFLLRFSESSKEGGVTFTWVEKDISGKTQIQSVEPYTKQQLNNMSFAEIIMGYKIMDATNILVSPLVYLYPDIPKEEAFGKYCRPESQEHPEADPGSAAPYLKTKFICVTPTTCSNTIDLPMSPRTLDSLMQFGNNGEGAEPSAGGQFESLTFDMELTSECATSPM

Molecular target: PARP1 (Poly ADP-ribose polymerase 1) (human (endogenous in Huh7)) (UniProt P09874)
Assay: co-IP; endogenous proteins in Huh7 cell lysate; lysis buffer 50mM Tris-HCl pH 8.0, 150mM NaCl, 5mM EDTA, 0.5% Nonidet P-40; indicated antibodies with protein A/G agarose beads overnight at 4 °C; immunoprecipitation in both directions, then immunoblot; for RNF146 and PARP1 also in TLR9-overexpressing cells (interaction enhanced) and with RNF146 siRNA (interaction reduced)

For “STAT3 (Signal transducer and activator of transcription 3) (from UniProt P40763 1-770)”, the binding was “binds”.
